Assay results reported in US20060183194A1 (Genentech, published 2006).
Results are given in words; binding and its absence hold for the method and conditions named. Some entries that bind do so weakly or less than the wild type. For some of these results: Sequences can lack the tags named with a protein.

T1: ErbB-4 receptor-Ig fusion (human, UniProt Q15303 26-651)
T1 construct: extracellular domain;range 224-C-terminus; also called ErbB-4-Ig; not shown: human IgG heavy chain constant region from His224 (hinge) on
T1 sequence: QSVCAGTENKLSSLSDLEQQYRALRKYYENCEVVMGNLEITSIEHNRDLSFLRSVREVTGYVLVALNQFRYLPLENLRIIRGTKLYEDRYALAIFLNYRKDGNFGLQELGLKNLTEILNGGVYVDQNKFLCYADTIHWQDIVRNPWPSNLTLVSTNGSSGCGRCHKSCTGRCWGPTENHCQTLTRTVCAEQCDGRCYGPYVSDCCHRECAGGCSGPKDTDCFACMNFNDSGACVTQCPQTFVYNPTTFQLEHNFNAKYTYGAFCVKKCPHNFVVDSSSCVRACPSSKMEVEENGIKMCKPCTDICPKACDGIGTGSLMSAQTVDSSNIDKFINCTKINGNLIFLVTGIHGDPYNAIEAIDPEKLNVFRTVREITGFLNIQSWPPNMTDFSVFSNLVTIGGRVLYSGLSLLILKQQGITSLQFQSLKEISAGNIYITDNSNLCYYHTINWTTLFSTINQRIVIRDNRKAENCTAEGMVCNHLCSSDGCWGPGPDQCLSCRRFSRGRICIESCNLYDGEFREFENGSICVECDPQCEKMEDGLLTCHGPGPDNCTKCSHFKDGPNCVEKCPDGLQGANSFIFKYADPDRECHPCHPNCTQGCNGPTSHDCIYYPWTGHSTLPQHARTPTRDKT


Tests used:
[1] = target: T2, ErbB-3 receptor-Ig fusion (human, UniProt P21860 20-643); assay: phage ELISA
T2 construct: extracellular domain;range 224-C-terminus; also called ErbB-3-Ig; 3/3 homodimer; not shown: human IgG heavy chain constant region from His224 (hinge) on

[2] = target: T1, ErbB-4 receptor-Ig fusion; assay: phage ELISA
[3] = target: T2, ErbB-3 receptor-Ig fusion; assay: phage ELISA; ratio to wild-type HRG8 phage

Binder | binding [1] | binding [2] | further results
Library A variant A1 of HRG-β1 EGF on phage (ligand, not shown: large carriers; small tags and cut ends) WRLVPCAEKEKTFCVNGGECFMVKDLSNPSRYLCKCPNEFTGDRCQNYVMAS | binds | – | –
Library A variant A2 of HRG-β1 EGF on phage (ligand, not shown: large carriers; small tags and cut ends) WSLQPCAEKEKTFCVNGGECFMVKDLSNPSRYLCKCPNEFTGDRCQNYVMAS | binds | – | –
Library D variant D4 of HRG-β1 EGF on phage (ligand, not shown: large carriers; small tags and cut ends) SHLVKCAEKEKTFCVNGGECYRVKTLSNPSRYLCKCPNEFTGDRCQNYVMAS | – | binds | –
Library I variant I1 of HRG-β1 EGF on phage (ligand, not shown: large carriers; small tags and cut ends) SHLVKCAEKEKTFCVNGGECFMVKDLSNPSRYLCKCPNEFTGDRCQWYVIAS | – | binds | –
Library I variant I2 of HRG-β1 EGF on phage (ligand, not shown: large carriers; small tags and cut ends) SHLVKCAEKEKTFCVNGGECFMVKDLSNPSRYLCKCPNEFTGDRCQHYVIAS | – | binds | –
HRG-β1 177-244 H178L on phage (ligand, not shown: large carriers; small tags and cut ends) SLLVKCAEKEKTFCVNGGECFMVKDLSNPSRYLCKCPNEFTGDRCQNYVMASFYKHLGIEFMEAEELY | binds | – | –
Library A variant A4 of HRG-β1 EGF on phage (ligand, not shown: large carriers; small tags and cut ends) WSLVKCAEKEKTFCVNGGECFMVKDLSNPSRYLCKCPNEFTGDRCQNYVMAS | – | – | binding [3]: no binding (tested: EC50 (wt)/EC50 (mut) below 0.3)
